# Taken from: PubChem BioAssay AID1224828 (NIAID, 2016)
# Test: 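Knock-downs that increase or decrease LPS-induced p65 nuclear translocation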 (primary screen)
# System: mouse RAW264.7 G9 macrophage reporter cells (GFP-p65, Tnf promoter-mCherry)
# Knock-down reagent: siRNA pool against mouse genes, 100 nM
# Time to read-out: 2 days siRNA transfection, then 40 min LPS before fixation
# Conditions: LPS (Salmonella minnesota R595) at 10 ng/ml
# Detection: 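Microscopy ratio of nuclear to perinuclear-ring GFP-p65 signal, scaled to the plate median; gene score is the average of two replicate robust z-scores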
# Reading the numbers: p65 translocation robust z-score: higher = more nuclear NF-kappaB p65 after LPS than the plate median; nuclear/cytoplasmic p65 ratio: higher = more nuclear NF-kappaB p65
# Active means: 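Active if robust z is above 3.3 (negative regulators) or below -1.56, the Tlr4 control median (positive regulators); activity score 50 or more; control wells not called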
# Meaning of the calls: active = hit (p65 shift raised or lowered); inactive = no clear change
# The deposit covers about 17,000 reagents; this is a random part of them. 762 of all reagents (4.5%) were called active. 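Active calls include both raised and lowered p65 entry, mostly lowered; wells with fewer than 50 cells lack a z-score.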 The raw values are shown without normalisation. Unmarked entries are inactive. The numbers tell different reagents against one gene apart. Reagent sequences are not shown.
gene,reagent no.,p65 translocation robust z-score,"nuclear/cytoplasmic p65 ratio, rep 1","nuclear/cytoplasmic p65 ratio, rep 2",low cell count flag
Brinp2,1,1.8,1.55,1.75,enough cells to score
Trmt112 (tRNA methyltransferase 11-2),1,-0.16,1.38,1.56,enough cells to score
Nae1 (NEDD8 activating enzyme E1 subunit 1),1,0.9,1.83,1.55,enough cells to score
Morc2a (microrchidia 2A),1,0.69,1.55,1.29,enough cells to score
Vmn1r76 (vomeronasal 1 receptor 76),1,-0.06,1.41,1.2,enough cells to score
R3hdm1 (R3H domain containing 1),1,,1.33,1.22,fewer than 50 cells per well; well left out of scoring
Or1e22 (olfactory receptor family 1 subfamily E member 22),1,-2.25 (active),1.35,1.06,enough cells to score
Pon1 (paraoxonase 1),1,0.26,1.54,1.43,enough cells to score
Iqch (IQ motif containing H),1,-0.34,1.74,1.34,enough cells to score
Trem5 (triggering receptor expressed on myeloid cells 5),1,,1.44,1.5,fewer than 50 cells per well; well left out of scoring
Slc17a7,1,,0.941,1.02,fewer than 50 cells per well; well left out of scoring
Asb17 (ankyrin repeat and SOCS box-containing 17),1,0.15,1.65,1.5,enough cells to score
Ccdc82 (coiled-coil domain containing 82),1,,1.76,1.21,fewer than 50 cells per well; well left out of scoring
Ubl4a (ubiquitin-like 4A),1,0.51,1.52,1.63,enough cells to score
"Gstm2 (glutathione S-transferase, mu 2)",1,-0.26,1.38,1.36,enough cells to score
"Tmprss11d (transmembrane protease, serine 11d)",1,0.76,1.65,2.02,enough cells to score
Shpk (sedoheptulokinase),1,-0.78,1.52,1.29,enough cells to score
"Klra7 (killer cell lectin-like receptor, subfamily A, member 7)",1,0.46,1.51,1.47,enough cells to score
"Serpina1a (serine (or cysteine) peptidase inhibitor, clade A, member 1A)",1,-0.19,1.46,1.6,enough cells to score
Plekhm3 (pleckstrin homology and RUN domain containing M3),1,-0.02,1.51,1.46,enough cells to score
Olfr900 (olfactory receptor 900),1,-0.32,1.36,1.26,enough cells to score
Dstn (destrin),1,-0.92,1.3,1.25,enough cells to score
Cd207 (CD207 antigen),1,-0.59,1.35,1.68,enough cells to score
Mmp16 (matrix metallopeptidase 16),1,-1.29,1.27,1.19,enough cells to score

Next part; the last 5 above are carried over.
gene,reagent no.,p65 translocation robust z-score,"nuclear/cytoplasmic p65 ratio, rep 1","nuclear/cytoplasmic p65 ratio, rep 2",low cell count flag
Plekhm3 (pleckstrin homology and RUN domain containing M3),1,-0.02,1.51,1.46,enough cells to score
Olfr900 (olfactory receptor 900),1,-0.32,1.36,1.26,enough cells to score
Dstn (destrin),1,-0.92,1.3,1.25,enough cells to score
Cd207 (CD207 antigen),1,-0.59,1.35,1.68,enough cells to score
Mmp16 (matrix metallopeptidase 16),1,-1.29,1.27,1.19,enough cells to score
Pyy (peptide YY),1,0.28,1.45,1.22,enough cells to score
Glrx5 (glutaredoxin 5),1,,1.32,1.45,fewer than 50 cells per well; well left out of scoring
Tomm40 (translocase of outer mitochondrial membrane 40),1,,1.31,0,fewer than 50 cells per well; well left out of scoring
1700025G04Rik (RIKEN cDNA 1700025G04 gene),1,-0.02,1.45,1.35,enough cells to score
"Serpina6 (serine (or cysteine) peptidase inhibitor, clade A, member 6)",1,-0.07,1.43,1.66,enough cells to score
Arid5a (AT-rich interaction domain 5A),1,-0.41,1.48,1.52,enough cells to score
Oprl1 (opioid receptor-like 1),1,-0.84,1.53,1.33,enough cells to score
Or6x1 (olfactory receptor family 6 subfamily X member 1),1,0.27,1.48,1.39,enough cells to score
Mia2 (MIA SH3 domain ER export factor 2),1,-1.06,1.58,1.37,enough cells to score
Mia2 (MIA SH3 domain ER export factor 2),2,1.17,1.89,1.73,enough cells to score
"Tnfsf12 (tumor necrosis factor (ligand) superfamily, member 12)",1,0.61,1.54,1.67,enough cells to score
"Tpt1 (tumor protein, translationally-controlled 1)",1,,1.7,1.35,fewer than 50 cells per well; well left out of scoring
Lamb1 (laminin B1),1,0.62,1.46,1.55,enough cells to score
"Nr1h4 (nuclear receptor subfamily 1, group H, member 4)",1,0.61,1.54,1.49,enough cells to score
Ces1e (carboxylesterase 1E),1,-1.79 (active),1.31,1.21,enough cells to score
AI467606 (expressed sequence AI467606),1,-0.51,1.48,1.66,enough cells to score
